Results are given in words; binding and its absence hold for the method and conditions named. Binding seen in cells or lysates may run through a third protein. Binding can be weak; no strength is given. Tags and fused reporters may be left off the sequences shown.
Key:
[1] = target: T1, FLAG-tagged Amer1-FL (full-length Amer1), in 293T cells (UniProt Q5JTC6); test: co-IP; FLAG-tagged Amer1 constructs and eGFP-tagged KIF23 transiently transfected in 293T cells; Co-IP buffer, antibody overnight at 4°C, protein A/G-agarose, Western blot
T1 sequence: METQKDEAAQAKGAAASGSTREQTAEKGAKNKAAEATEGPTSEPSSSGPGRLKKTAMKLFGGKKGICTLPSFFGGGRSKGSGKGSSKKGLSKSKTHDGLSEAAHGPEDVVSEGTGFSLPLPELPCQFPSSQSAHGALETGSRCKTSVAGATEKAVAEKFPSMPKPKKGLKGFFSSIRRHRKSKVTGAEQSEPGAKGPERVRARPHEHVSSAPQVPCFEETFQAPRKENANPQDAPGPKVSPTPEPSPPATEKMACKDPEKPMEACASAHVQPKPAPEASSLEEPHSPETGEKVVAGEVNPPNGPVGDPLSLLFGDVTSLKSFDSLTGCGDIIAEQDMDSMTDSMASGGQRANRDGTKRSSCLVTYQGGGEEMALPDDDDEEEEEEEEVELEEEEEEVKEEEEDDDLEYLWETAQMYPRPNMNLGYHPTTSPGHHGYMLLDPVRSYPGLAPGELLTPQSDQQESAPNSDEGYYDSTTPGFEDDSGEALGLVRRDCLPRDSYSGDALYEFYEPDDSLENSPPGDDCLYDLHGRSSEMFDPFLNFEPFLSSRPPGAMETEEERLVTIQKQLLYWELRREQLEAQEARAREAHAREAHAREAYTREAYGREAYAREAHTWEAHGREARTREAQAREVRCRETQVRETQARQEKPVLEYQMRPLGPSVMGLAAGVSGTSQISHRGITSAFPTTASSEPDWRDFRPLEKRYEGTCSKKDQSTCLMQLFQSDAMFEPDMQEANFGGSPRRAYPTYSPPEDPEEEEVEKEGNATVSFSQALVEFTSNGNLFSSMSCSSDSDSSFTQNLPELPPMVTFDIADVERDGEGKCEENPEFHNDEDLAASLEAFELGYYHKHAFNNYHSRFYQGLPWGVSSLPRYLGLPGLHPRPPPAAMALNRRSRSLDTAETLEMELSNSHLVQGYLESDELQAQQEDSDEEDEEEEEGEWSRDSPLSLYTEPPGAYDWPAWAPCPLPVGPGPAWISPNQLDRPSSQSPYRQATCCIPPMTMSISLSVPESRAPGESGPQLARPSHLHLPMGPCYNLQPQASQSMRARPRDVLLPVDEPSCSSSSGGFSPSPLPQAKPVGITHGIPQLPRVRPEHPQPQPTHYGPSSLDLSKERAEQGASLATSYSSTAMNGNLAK

[2] = target: T2, GST-KIF23 (human) (UniProt Q02241); test: pull-down; Pierce GST Protein Interaction Pull-Down Kit; GST-tagged bait from E. coli immobilised on the spin column, prey protein added, Western blot for KIF23 and Amer1; only the target purified
T2 sequence: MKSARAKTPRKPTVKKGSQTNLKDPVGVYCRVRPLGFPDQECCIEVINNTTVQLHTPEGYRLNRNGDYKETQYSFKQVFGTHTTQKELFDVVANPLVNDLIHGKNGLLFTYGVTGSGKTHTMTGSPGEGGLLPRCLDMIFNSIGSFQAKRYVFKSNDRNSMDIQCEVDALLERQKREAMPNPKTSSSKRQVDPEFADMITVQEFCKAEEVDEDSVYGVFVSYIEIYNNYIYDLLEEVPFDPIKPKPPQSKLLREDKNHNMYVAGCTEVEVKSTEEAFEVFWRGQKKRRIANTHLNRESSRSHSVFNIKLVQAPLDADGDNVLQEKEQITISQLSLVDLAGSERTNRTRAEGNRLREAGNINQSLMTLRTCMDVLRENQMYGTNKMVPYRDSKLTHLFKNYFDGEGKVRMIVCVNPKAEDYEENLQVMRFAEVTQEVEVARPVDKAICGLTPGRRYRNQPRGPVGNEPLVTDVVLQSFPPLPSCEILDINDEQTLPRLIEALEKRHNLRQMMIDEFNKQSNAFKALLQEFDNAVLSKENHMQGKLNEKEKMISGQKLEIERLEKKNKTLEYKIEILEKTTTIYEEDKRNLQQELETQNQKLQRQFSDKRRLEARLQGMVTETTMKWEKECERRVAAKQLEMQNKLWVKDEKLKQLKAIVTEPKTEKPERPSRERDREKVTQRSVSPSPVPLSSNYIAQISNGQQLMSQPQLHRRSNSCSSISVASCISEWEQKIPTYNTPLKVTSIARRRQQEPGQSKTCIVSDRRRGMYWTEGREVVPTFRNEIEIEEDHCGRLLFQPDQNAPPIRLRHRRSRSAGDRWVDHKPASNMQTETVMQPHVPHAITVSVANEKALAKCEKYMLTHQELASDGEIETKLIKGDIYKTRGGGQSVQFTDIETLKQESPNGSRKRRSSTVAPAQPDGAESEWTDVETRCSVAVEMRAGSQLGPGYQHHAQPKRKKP

binding [1] | binding [2] | Substance
binds |  | eGFP-tagged KIF23 (pEGFP-C1-MKLP1) (human)
 | binds | Amer1-ΔM (lacking the N-terminal membrane localization domains, MLD) (domain or fragment)
 | binds | Amer1-ΔA (lacking the APC-binding domains, ABD) (domain or fragment)

From PMC7244035
